# Measurements as given in PubChem BioAssay AID504467 (National Center for Advancing Translational Sciences (NCATS), 2011).
# Hit rate of the full screen: of about 330,000 compounds, about 7,700 (2.3%) were called active. Inconclusive means that the source gave no clear call. Such entries were picked first, then a sample of the others. The call rests on the fitted dose curve; in most records, active means well fitted inhibition curve with a large enough effect; inconclusive means small, poorly fitted or top-dose-only effect, or effect the other way; inactive means flat fitted curve, though single readings scatter. Potencies of inconclusive entries are doubtful fits and often do not repeat.
# Assay: qHTS screen for small molecules that inhibit ELG1-dependent DNA repair in human embryonic kidney (HEK293T) cells expressing luciferase-tagged ELG1; further: nearly all actives have a fitted effect of over 55% in size
# Conditions: HEK293T ELG1-luciferase reporter, luminescence, 16 h, DNA damage induced by 5-fluorouridine; activity change, negative = inhibition: at 46.1 µM (top of the series)
# Summary of the method: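 Step one: seed 2,000 cells per well. Step two: pin-transfer compound or DMSO alongside 5-fluorouridine. Step three: incubate 16 hr, 37 °C, 5% CO2. Step four: add ONE-Glo, wait 30 min, read luminescence.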
# On the % scale 0 is the no-effect control and ±100 the full control effect; potency means the concentration at half of the fitted maximal effect.
SMILES,Potency,"activity change, negative = inhibition"
c1ccc(-c2nc3cc4ccccc4cc3[nH]2)nc1,"inconclusive: 0.231 µM [activator, full curve]",–
Cc1c(NC(=O)OCCNC(=O)COc2c(Cl)cccc2Cl)sc(=S)n1C,"inconclusive: 29.1 µM [inhibitor, single point]",–
CCN1C(=O)C(=Cc2cccc(OC)c2Oc2ccc([N+](=O)[O-])cc2[N+](=O)[O-])SC1=S,"inconclusive: 23.1 µM [inhibitor, single point]",–
CS(=O)(=O)N1CCC(C(=O)Nc2cc(C(F)(F)F)ccc2Cl)CC1,–,inactive: 1.28%
O=[N+]([O-])c1ccccc1Nc1nc(-c2cccnc2)cs1,–,inactive: 0%
CCOc1ccc(-c2nnc(N)o2)cc1,"inconclusive: 20.6 µM [activator, single point]",–
O=C(Nc1ccc(-c2nc3cccnc3s2)cc1)c1ccco1,"inconclusive: 1.03 µM [activator, partial curve]",–
Cc1oc(-c2cccc(F)c2)nc1CN1CCCN(C(=O)c2ccco2)CC1,–,inactive: -7.44%
CN(Cc1ccccc1)S(=O)(=O)c1ccc2c(c1)CCC(=O)N2,–,inactive: -2.46%
CCOC(=O)c1cnc2ccc(C(=O)OC)cc2c1NCCc1ccc(OC)c(OC)c1,active: 14.6 µM,–
COc1ccc(-c2oc(=O)c3cc(OC)c(OC)cc3c2C#CCCCO)cc1,"inconclusive: 1.64 µM [inhibitor, full curve, poor fit]",–
COc1ccc(NC(=O)COC(=O)CN2C(=O)NC(C)(C)C2=O)cc1,"inconclusive: 32.6 µM [activator, single point]",–
CCOC(=O)C1=C(COC(=O)c2ccc(OC)c(OC)c2OC)NC(=O)NC1C (stereo not drawn),"inconclusive: 14.6 µM [inhibitor, single point]",–
O=C(/C=C/c1ccccc1)CC(=O)c1ccccc1O,"inconclusive: 23.1 µM [activator, single point]",–
CS(=O)(=O)N(CC(=O)Nc1ccccc1C(=O)NCCc1ccccc1)c1ccc2c(c1)OCCO2,"inconclusive: 20.6 µM [inhibitor, partial curve, poor fit]",–
C=CCn1c(-c2ccc(=O)n(Cc3ccccc3)c2)n[nH]c1=S,–,inactive: -0.218%
Cc1ccc([N+](=O)[O-])cc1NC(=O)C(Sc1ccccc1)c1ccccc1 (stereo not drawn),–,inactive: 10.1%
Cc1ccc(C=Nc2ccccc2C(=O)Nc2ccccc2)cc1,"inconclusive: 20.6 µM [activator, partial curve, poor fit]",–
Cc1cc(OCC(=O)NC2CC(C)(C)NC(C)(C)C2)c2c(C)c(C)c(=O)oc2c1,"inconclusive: 29.1 µM [activator, single point]",–
CCCCN(C)C(=O)c1cc2c(Cl)nc3ccccc3c2s1,–,inactive: -13.2%
Cc1cc(C)c(S(=O)(=O)Nc2ccc(O)c(Sc3ncn[nH]3)c2)cc1C,–,inactive: -7.56%
O=C(CCCN1C(=O)/C(=C/c2ccc(F)cc2)SC1=S)NC1CCS(=O)(=O)C1 (stereo not drawn),–,inactive: -25.2%
COc1ccc2cc(-c3[nH]ncc3CN3C[C@@H]4CCC[C@H]3C4)ccc2c1,"inconclusive: 23.1 µM [activator, single point]",–
COc1ccc(OCc2cc(C(=O)NCC3(C)COC3)no2)c(Cl)c1,"inconclusive: 3.26 µM [activator, partial curve, poor fit]",–
O=C(COc1ccc(Br)cc1F)NC1CC1,"inconclusive: 18.3 µM [activator, single point]",–

# By substructure: the entries above containing a Cl atom (four)
SMILES,Potency,"activity change, negative = inhibition"
Cc1c(NC(=O)OCCNC(=O)COc2c(Cl)cccc2Cl)sc(=S)n1C,"inconclusive: 29.1 µM [inhibitor, single point]",–
CS(=O)(=O)N1CCC(C(=O)Nc2cc(C(F)(F)F)ccc2Cl)CC1,–,inactive: 1.28%
CCCCN(C)C(=O)c1cc2c(Cl)nc3ccccc3c2s1,–,inactive: -13.2%
COc1ccc(OCc2cc(C(=O)NCC3(C)COC3)no2)c(Cl)c1,"inconclusive: 3.26 µM [activator, partial curve, poor fit]",–

# (continued)

SMILES,Potency,"activity change, negative = inhibition"
COc1cc(-c2nnc(SCC(=O)c3ccccc3)o2)cc(OC)c1OC,"inconclusive: 29.1 µM [inhibitor, single point]",–
CCC(=O)Nc1ccc(-c2csc(NNC(C)=O)n2)cc1,–,inactive: -0.142%
CCN1C(=O)CC(NNC(=O)c2ccccc2)C1=O (stereo not drawn),"inconclusive: 20.6 µM [activator, partial curve, poor fit]",–
O=C(Nc1nnc(-c2cccnc2)o1)c1cccc(Cl)c1,active: 16.4 µM,–
C=CCN(c1ccccc1)S(=O)(=O)c1cccc(C(=O)Nc2nnc(SCC)s2)c1,"inconclusive: 20.6 µM [activator, partial curve, poor fit]",–
COc1cc(S(=O)(=O)N2CCC(c3nc4ccccc4s3)CC2)ccc1S(=O)(=O)NC1CCCC1,"inconclusive: 13 µM [inhibitor, partial curve, poor fit]",–
Cc1nn(Cc2ccccc2)c2c1C(c1cccnc1)C(C#N)=C(N)O2 (stereo not drawn),"inconclusive: 29.1 µM [activator, partial curve, poor fit]",–
O=C(NC(=S)N1CCN(c2ccccc2)CC1)c1c(F)cccc1F,–,inactive: 4.53%
CCN(CC(=O)Nc1ccc2c(c1)OCCO2)C(=O)C1CC(=O)N(c2ccc(OC)cc2OC)C1 (stereo not drawn),–,inactive: -15.9%
O=C(OC1CCCCC1)c1cc2ccccc2oc1=O,"inconclusive: 16.4 µM [activator, partial curve]",–
O=[N+]([O-])c1nn(-c2ccc(Cl)cc2)n(O)c1=NCc1ccncc1,–,inactive: -7.69%
CO/N=C/NC(=O)c1c(OC)ccnc1Oc1ccccc1,"inconclusive: 13 µM [activator, partial curve, poor fit]",–
CCCSc1ccc([C@@H]2[C@H]3C(=O)N(CC)C(=O)[C@H]3[C@]3(C(=O)OC)CCCN23)cc1,–,inactive: 13%
c1cc2c(cn1)cnc1cscc12,active: 8.2 µM,–
CCCC(=O)NCc1ccccc1Cl,–,inactive: -8.98%
Cc1ccc(SCc2c(C(=O)N/N=C/C3CC=CCC3)nnn2-c2nonc2N)cc1 (stereo not drawn),"inconclusive: 25.9 µM [inhibitor, single point]",–
N#Cc1ccc(C(=O)Nc2nnc(-c3cccs3)o2)cc1,"inconclusive: 29.1 µM [inhibitor, single point]",–
Cc1nc(-c2cccnc2)sc1C(=O)Nc1cccc(C(F)(F)F)c1,"inconclusive: 29.1 µM [inhibitor, single point]",–
Cc1cc(C)c2c(N)c(C(=O)Nc3ncc(C)s3)sc2n1,"inconclusive: 0.0052 µM [activator, full curve, poor fit]",–
COc1ccc([N+](=O)[O-])cc1CSc1nnc(NC(C)=O)s1,–,inactive: 14%
CCOC(=O)CN1C(=O)S/C(=C/c2ccc(C)o2)C1=O,"inconclusive: 35.5 µM [activator, single point]",–
CCCCn1c(C(C)NC(=O)c2cccs2)nc2ccccc21 (stereo not drawn),"inconclusive: 5.8 µM [activator, single point]",–
COc1ccc(/C=C(\NC(=O)c2ccccc2)C(=O)N2CCC(C)CC2)cc1,–,inactive: -6.08%
CNC(=S)Nc1ccc(C(N)=O)cc1,–,inactive: 10.5%
COc1ccc(N2CCN(C(=O)CCC(=O)N3CC(C)Oc4ccc(C)cc43)CC2)cc1 (stereo not drawn),"inconclusive: 16.4 µM [inhibitor, partial curve, poor fit]",–

SMILES,Potency,"activity change, negative = inhibition"
Cc1ccc(CN2CCN(/N=C/c3ccc(C(=O)O)cc3)CC2)cc1,–,inactive: 23.8%
CCCCN(C)CCNC(=O)CCn1nc(-c2ccc(C)cc2)ccc1=O,–,inactive: -4.93%
CC(C)c1ccccc1-n1c(SCC(=O)c2ccc3c(c2)NC(=O)CO3)nc2ccccc2c1=O,active: 5.17 µM,–
CCCCN(C(=O)Cn1nnc2ccccc21)C(C(=O)NCCOC)c1ccc(OC)cc1 (stereo not drawn),–,inactive: -1%
COc1cccc(NC(=O)C(NCCc2ccc(S(N)(=O)=O)cc2)c2ccccc2)c1 (stereo not drawn),–,inactive: 1.12%
CC1(C)Oc2cc(N)c([N+](=O)[O-])cc2O1,"inconclusive: 16.4 µM [activator, partial curve, poor fit]",–
CCOC(=O)C(C(C)=O)c1c(Br)c(O)c(O)c2c(C(=O)c3ccc(C)cc3)coc12 (stereo not drawn),active: 4.61 µM,–
CCOC(=O)c1cc(C)sc1NC(=O)c1ccc(Cl)s1,–,inactive: -1.95%
CC(C)N(Cc1nnc(-c2ccccc2Br)o1)C(=O)c1cc(Cl)nc2ccccc12,"inconclusive: 18.3 µM [inhibitor, single point]",–
Cc1ccc(/C=N\NC(=O)c2csnn2)cc1,"inconclusive: 16.4 µM [activator, partial curve]",–
CN(C)S(=O)(=O)c1cccc(NC(=S)NC(=O)c2ccco2)c1,"inconclusive: 5.17 µM [activator, single point]",–
CCNC(=O)N(CC)C[C@H]1N[C@@](Cc2ccccc2)(C(=O)OC)[C@H]2C(=O)N(C)C(=O)[C@@H]12,–,inactive: 7.99%
Cc1c(Nc2cc(Cl)c3nonc3c2[N+](=O)[O-])c(=O)n(-c2ccccc2)n1C,"inconclusive: 29.1 µM [inhibitor, single point]",–
CC(=O)Nc1c(C(=O)Nc2ccc3c(c2)OCO3)oc2ccccc12,"inconclusive: 3.66 µM [activator, full curve]",–
Cc1ccc(C)c2[nH]c(=O)c(CN(Cc3cccs3)C(=S)NCc3ccco3)cc12,active: 16.4 µM,–
Cc1cc(C(=O)CN2C(=O)NC(CC(C)C)C2=O)c(C)n1-c1ccccc1F (stereo not drawn),"inconclusive: 11.6 µM [activator, partial curve]",–
Cc1nnc(SCC(=O)N(C)C2CCCCC2)n1C,"inconclusive: 17.8 µM [activator, single point]",–
CCCCNC(=O)CC1N=C2c3ccccc3N=C(SCC(=O)Nc3ccccc3C)N2C1=O (stereo not drawn),–,inactive: 5.03%
Cc1csc(NC(=O)CSc2nnc(-c3ccoc3C)o2)n1,"inconclusive: 9.2 µM [activator, partial curve]",–
Nc1ccccc1Sc1nc2ccccc2[nH]1,"inconclusive: 20.6 µM [activator, single point]",–
C#CCOc1ccc2c(C)cc(=O)oc2c1,–,inactive: 22.2%
CN(c1ccccc1C(=O)Nc1cccc(Br)c1)S(=O)(=O)c1ccccc1,"inconclusive: 23.1 µM [inhibitor, single point]",–
Cc1ccc(NC(=S)N2CCC(c3ccccc3)C2)c(Cl)c1 (stereo not drawn),"inconclusive: 2.91 µM [activator, partial curve]",–

# Taken from above:
# Potency, `CN(c1ccccc1C(=O)Nc1cccc(Br)c1)S(=O)(=O)c1ccccc1` is entered as inconclusive: 23.1 µM [inhibitor, single point]
# Potency, `CC(C)N(Cc1nnc(-c2ccccc2Br)o1)C(=O)c1cc(Cl)nc2ccccc12` is entered as inconclusive: 18.3 µM [inhibitor, single point]
